We go through 59 compounds from the supplement of paper PMC12578635.

Some of the results follow. Rule as the data show it: active = 150% or more and inactive = the rest. Many values rest on one well or one pass, so single values are uncertain.

The test system of the assay is Staphylococcus aureus JE2-lux inside RAW 264.7 macrophages. The assay is described as follows: intracellular bacterial bioluminescence relative to DMSO vehicle; higher = higher intracellular bacterial metabolic activity. Conditions: 10 µM; treatment time 4 h; gentamicin 50 µg/ml. As to the method:
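RAW 264.7 macrophages infected with bioluminescent MRSA JE2-lux (MOI 100) were dispensed into 384-well plates with 10 µM compound in the presence of 50 µg/ml gentamicin. After 4 h at 37 °C, bacterial bioluminescence (a proxy for intracellular bacterial metabolic activity) and host cell viability (CellTiter-Fluor) were read and normalised to 0.1% DMSO vehicle controls. Single-pass screen of the UNC CICBDD kinase-targeted library (>4,700 compounds).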
Regarding `CC(=O)c1ccc(OCC(O)CN2CCc3ccccc3C2)cc1` (centres undefined), the intracellular bacterial bioluminescence was inactive: 82.4%.

For the compound `N#Cc1c(NC(=O)C2CC(=O)NN2Cc2ccccc2)sc2c1CCCC2` (centres undefined), the intracellular bacterial bioluminescence was inactive: 65.4%.

`Cc1nnc2sc(SCC(=O)Nc3ccc(Cl)cc3)nn2c1=O`: the intracellular bacterial bioluminescence was inactive: 99.6%.

Turning to `COC(=O)c1nn(-c2ccc3c(c2)CCN3C(C)=O)cc1O`, the intracellular bacterial bioluminescence is inactive: 125%.

Take `N#Cc1cc2cc3c(cc2nc1NCCCNC(=O)COc1ccccc1)OCO3`: the intracellular bacterial bioluminescence was inactive: 82.6%.

Take `Cc1ccc(/C=C/c2nc3ccccc3[nH]c2=O)cc1`: the intracellular bacterial bioluminescence was inactive: 40.9%.

As for `O=C(Oc1ccc2oc(=O)cc(-c3cc4ccccc4o3)c2c1)c1cccs1`, the intracellular bacterial bioluminescence was inactive: 142%.

Take `Cc1ccc(Cc2nnc(SCC(=O)Nc3cccc(Cl)c3C)n(N)c2=O)cc1`: the intracellular bacterial bioluminescence was inactive: 110%.

For `CCCCC(=O)Nc1cnc(N2CCN(c3ccccn3)CC2)c(C(=O)O)c1`, the intracellular bacterial bioluminescence was inactive: 101%.

On to `CCS(=O)(=O)N1CCCC(C(=O)NCC2CCCO2)C1` (centres undefined), for which the intracellular bacterial bioluminescence is inactive: 121%.

For the compound `CCS(=O)(=O)N1CCC(Nc2nc3c(c(=O)[nH]2)CCCC3)CC1`, the intracellular bacterial bioluminescence was inactive: 113%.

As for `Cc1ccc(NC(=O)CSc2nc3cc(C)cc(C)c3cc2C#N)c(Br)c1`, the intracellular bacterial bioluminescence is inactive: 103%.

For the compound `CCn1c(C)cc2cc(NC(=O)c3cc(C4CC4)nn3C)ccc21`, the intracellular bacterial bioluminescence was inactive: 26.3%.

`COc1cc(C(=O)NNc2nc3c(OC)ccc(OC)c3s2)cc(OC)c1OC`: the intracellular bacterial bioluminescence is inactive: 118%.

As for `O=C(CSc1nc2sc3c(c2c(=O)n1Cc1ccco1)CCC3)Nc1nccs1`, the intracellular bacterial bioluminescence was inactive: 87%.

As for `O=C(OCCNC1=C(Cl)C(=O)c2ccccc2C1=O)c1ccccc1`, the intracellular bacterial bioluminescence was inactive: 40.1%.

In the case of `O=[N+]([O-])c1ccc2sc(SCc3nc4ncccn4c3Br)nc2c1`, the intracellular bacterial bioluminescence was inactive: 30.2%.

Consider `CCS(=O)(=O)c1ccccc1C(=O)Nc1ccc2nc(C)sc2c1`, for which the intracellular bacterial bioluminescence was inactive: 102%.

Consider `O=C(Nc1nc2ccc3ccccc3c2s1)c1ccc(S(=O)(=O)N2CCc3ccccc32)cc1`, for which the intracellular bacterial bioluminescence is inactive: 104%.

Regarding `Cc1cccc(N2CCN(c3nccnc3SCC(=O)Nc3ccccc3Cl)CC2)c1C`, the intracellular bacterial bioluminescence was inactive: 62.4%.

With `COC(=O)c1cc(Nc2nc(C)nc3sc4c(c23)CCC4)cc(C(=O)OC)c1`, the intracellular bacterial bioluminescence is inactive: 117%.

`CSc1ncc(C(=O)NC(c2ccccc2)c2cccnc2)cn1` (centres undefined): the intracellular bacterial bioluminescence is inactive: 116%.

As for `Cc1ccc(-c2nc(C(N)=O)c3[nH]c(=O)n(C(C)C)c3n2)cc1C`, the intracellular bacterial bioluminescence is inactive: 109%.

For `O=C(CN(C(=O)C(=O)Nc1ccc2c(c1)OCCO2)N1CCOCC1)NC1CCCC1`, the intracellular bacterial bioluminescence is inactive: 128%.

On to `COc1ccc(NC(c2ccccn2)c2oc(CO)cc(=O)c2O)cc1` (centres undefined), for which the intracellular bacterial bioluminescence is inactive: 102%.

As to `COc1ccc2c(c1)c(=O)c(Br)c(C)n2CC(=O)Nc1cccc(C)c1`, the intracellular bacterial bioluminescence was inactive: 103%.

With `Cc1cc(O)c(C(c2ccncc2)N2CCC(C)CC2)c(=O)n1Cc1ccco1` (centres undefined), the intracellular bacterial bioluminescence was inactive: 112%.

On to `O=C(NCCc1ccc(Cl)cc1)C(=O)Nc1ccon1`, for which the intracellular bacterial bioluminescence is inactive: 123%.

With `Cc1c(CCC(=O)O)c(=O)n2c([nH]c3ccccc32)c1C#N`, the intracellular bacterial bioluminescence was inactive: 98.2%.

As to `Cc1ccc(NC(=O)CSC2CC(=O)N(c3ccc(C)cc3)C2=O)cc1` (centres undefined), the intracellular bacterial bioluminescence was inactive: 115%.

As to `COCCn1c2ccccc2n2c(=O)n(Cc3cscn3)nc12`, the intracellular bacterial bioluminescence was inactive: 113%.

On to `COc1cccc(OCC(=O)N2CCC3(CC2)CC(=O)c2ccccc2O3)c1`, for which the intracellular bacterial bioluminescence was inactive: 59%.

`Cc1ccc(C)c(S(=O)(=O)c2cnc(SCC(=O)Nc3ccc(F)cc3F)[nH]c2=O)c1`: the intracellular bacterial bioluminescence is inactive: 107%.

In the case of `CN(C(=O)c1cccc(NC(=O)C2OCOc3ccccc32)c1)C1CCCCC1` (centres undefined), the intracellular bacterial bioluminescence is inactive: 86.4%.

In the case of `O=C(c1cccnc1)N1C(=O)c2cccc3cccc1c23`, the intracellular bacterial bioluminescence was inactive: 105%.

In the case of `O=C(Cn1c(=O)n(CCC(=O)NC2CCCC2)c(=O)c2ccccc21)NCCC1=CCCCC1`, the intracellular bacterial bioluminescence was inactive: 113%.

Regarding `O=C(Nc1ccc(F)c(F)c1)c1ccc2nc[nH]c2c1`, the intracellular bacterial bioluminescence was inactive: 113%.

Regarding `O=C(COc1ccc(Cl)cc1)NCCSc1ncc(-c2ccc(F)cc2)[nH]1`, the intracellular bacterial bioluminescence was inactive: 98.9%.

Regarding `O=C(CSc1nnc2ccc(-c3cccnc3)nn12)NCc1ccco1`, the intracellular bacterial bioluminescence is inactive: 105%.

With `CN(C)Cc1c(O)ccc2c1O/C(=C\c1ccccc1)C2=O`, the intracellular bacterial bioluminescence is inactive: 108%.

On to `CC1CCc2cc(F)ccc2N1C(=O)c1sc2nc3cc4c(cc3cc2c1N)OCO4` (centres undefined), for which the intracellular bacterial bioluminescence was inactive: 76.7%.

With `Cc1cc(NCCCn2ccnc2)n2c(nc3ccccc32)c1C#N`, the intracellular bacterial bioluminescence was inactive: 110%.

Turning to `COC(=O)Cn1/c(=N/C(=O)COc2ccc(Cl)cc2)sc2cc(NC(C)=O)ccc21`, the intracellular bacterial bioluminescence was inactive: 111%.

With `CCN(CC)S(=O)(=O)c1ccc(C(=O)Oc2cc(C)[nH]c(=O)c2[N+](=O)[O-])cc1`, the intracellular bacterial bioluminescence is inactive: 117%.

As for `Fc1ccccc1Nc1nc(=S)[nH]c2ccccc12`, the intracellular bacterial bioluminescence was inactive: 87.7%.

Consider `COc1cccc(C(=O)NCC(=O)N/N=C/c2ccc(Cl)cc2)c1`, for which the intracellular bacterial bioluminescence was inactive: 91.4%.

As to `CCCCc1ccc(NC(=O)/C=C2\SC(=O)NC2=O)cc1`, the intracellular bacterial bioluminescence was inactive: 91.3%.

`CCOC(=O)c1c(SC(CC)C(=O)OC)nc(=O)[nH]c1C` (centres undefined): the intracellular bacterial bioluminescence is inactive: 110%.

Regarding `CCOC(=O)N1CCN(C(=O)Cn2c(=O)n(-c3ccccc3)c(=O)c3oc4ccccc4c32)CC1`, the intracellular bacterial bioluminescence is inactive: 113%.

On to `N#CC1=C(SCC(=O)N(c2ccccc2)c2ccccc2)NC2=C(C(=O)CCC2)C1c1ccco1` (centres undefined), for which the intracellular bacterial bioluminescence is inactive: 97.6%.

As for `C=CCOc1ccc(C2NC(=O)c3c(sc4c3CCCC4)N2)cc1OC` (centres undefined), the intracellular bacterial bioluminescence was inactive: 78.6%.

`O=C(Cc1cc(=O)[nH]c(=O)[nH]1)NCCC(c1ccccc1)c1ccccc1`: the intracellular bacterial bioluminescence was inactive: 126%.

Regarding `Cc1nc(Cl)c2c(C)c(C)n(-c3ccccc3)c2n1`, the intracellular bacterial bioluminescence was inactive: 109%.

Take `CC(C)c1ccc2nc(SCC(=O)NCCc3c[nH]c4ccccc34)c(C#N)cc2c1`: the intracellular bacterial bioluminescence is inactive: 114%.

For `COc1ccc(-c2ccc(=O)n(C[C@H](C)NC(=O)c3cnn4cccnc34)n2)cc1`, the intracellular bacterial bioluminescence was inactive: 111%.

In the case of `Cc1nc2cc(NC(=O)c3ccc(S(=O)(=O)N4CCC(C)CC4)cc3)ccc2s1`, the intracellular bacterial bioluminescence was inactive: 108%.

On to `Fc1ccc2ncc3c(-c4ccccc4)n[nH]c3c2c1`, for which the intracellular bacterial bioluminescence is inactive: 95.1%.

Turning to `CCc1ccc(NC(=O)CSc2nc(-c3ccc(C(C)C)cc3)no2)cc1`, the intracellular bacterial bioluminescence is inactive: 66.2%.

`Cc1c(NS(=O)(=O)c2ccc(Cl)cc2)c(-n2cnnc2)nn1C`: the intracellular bacterial bioluminescence is inactive: 97.1%.
